No constants are given. Whether binding was seen depends on the method and setting. In cells and extracts the contact can be indirect. Some entries that bind do so weakly or less than the wild type. One block for each substance: values may come before it.
What was measured:
[1] = biological target: paxillin (Pxn), endogenous (mouse (endogenous in mouse fibroblasts)) (UniProt Q8VI36); experiment: co-IP; IP of endogenous Pxn with a rabbit polyclonal anti-Pxn (H-114) from Ccnd1+/+ immortalized MEFs; lysis buffer 10 mM Tris-HCl pH 7.5, 50 mM NaCl, 1% Triton X-100, 3 mM MgCl2, 300 mM sucrose; Protein A magnetic beads; anti-Flag IgG as mock; western blot for Ccnd1, Cdk4, Pxn
[2] = biological target: GST-Pxn (full length) (mouse) (UniProt Q8VI36); experiment: pull-down; 400 ng of GST or GST-Pxn on Glutathione-Sepharose 4B beads, incubated with in vitro translated Flag-Ccnd1; 20 mM HEPES-KOH pH 7.5, 150 mM KCl, 5 mM MgCl2, 0.5 mM EDTA, 0.1% NP-40, 1 mM DTT, 10% glycerol; 30 min at room temperature; four washes; western blot for Ccnd1 and GST; only the target purified
[3] = biological target: GST-Pxn-Ct (four LIM domains, aa337-591) (mouse) (UniProt Q8VI36); experiment: as above
[4] = biological target: GFP-tagged human Pxn (in R3327-5′A cells) (human) (UniProt P49023); experiment: co-IP; R3327-5′A cells co-transfected with GFP-Pxn or GFP alone and Flag-Ccnd1; IP with anti-GFP monoclonal antibodies; same lysis buffer; blot with anti-GFP and anti-Flag
[5] = biological target: Cyclin D1 (Ccnd1), endogenous (mouse (endogenous in mouse fibroblasts)) (UniProt P25322); experiment: co-IP; IP of endogenous Ccnd1 with a rabbit polyclonal anti-Ccnd1 (#06-137) from wild-type MEFs; same lysis buffer; Protein A magnetic beads; anti-Flag IgG as mock; western blot

Sequences of proteins named here, by UniProt entry; tags and fusion partners are left off. A change or cut given only in a name is not applied to a line headed by its entry. Residues count along the entry.
UniProt Q8VI36: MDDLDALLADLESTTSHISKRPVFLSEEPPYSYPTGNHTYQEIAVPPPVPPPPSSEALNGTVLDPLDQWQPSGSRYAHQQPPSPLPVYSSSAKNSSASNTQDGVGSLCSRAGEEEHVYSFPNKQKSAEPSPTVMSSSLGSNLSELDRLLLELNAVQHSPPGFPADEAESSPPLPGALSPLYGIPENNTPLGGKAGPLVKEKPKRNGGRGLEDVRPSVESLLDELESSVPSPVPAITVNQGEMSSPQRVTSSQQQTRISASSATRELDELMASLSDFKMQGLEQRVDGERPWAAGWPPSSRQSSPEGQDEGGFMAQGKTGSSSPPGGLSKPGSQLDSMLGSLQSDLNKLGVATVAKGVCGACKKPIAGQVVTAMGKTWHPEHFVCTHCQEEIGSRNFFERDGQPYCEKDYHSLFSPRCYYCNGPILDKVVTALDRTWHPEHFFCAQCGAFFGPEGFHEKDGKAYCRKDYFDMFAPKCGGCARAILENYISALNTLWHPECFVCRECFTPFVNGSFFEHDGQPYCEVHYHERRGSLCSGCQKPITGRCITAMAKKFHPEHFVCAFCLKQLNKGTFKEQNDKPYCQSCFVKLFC
GST-Pxn-Ct (four LIM domains, aa337-591): residues 337-591 of Q8VI36
UniProt P49023: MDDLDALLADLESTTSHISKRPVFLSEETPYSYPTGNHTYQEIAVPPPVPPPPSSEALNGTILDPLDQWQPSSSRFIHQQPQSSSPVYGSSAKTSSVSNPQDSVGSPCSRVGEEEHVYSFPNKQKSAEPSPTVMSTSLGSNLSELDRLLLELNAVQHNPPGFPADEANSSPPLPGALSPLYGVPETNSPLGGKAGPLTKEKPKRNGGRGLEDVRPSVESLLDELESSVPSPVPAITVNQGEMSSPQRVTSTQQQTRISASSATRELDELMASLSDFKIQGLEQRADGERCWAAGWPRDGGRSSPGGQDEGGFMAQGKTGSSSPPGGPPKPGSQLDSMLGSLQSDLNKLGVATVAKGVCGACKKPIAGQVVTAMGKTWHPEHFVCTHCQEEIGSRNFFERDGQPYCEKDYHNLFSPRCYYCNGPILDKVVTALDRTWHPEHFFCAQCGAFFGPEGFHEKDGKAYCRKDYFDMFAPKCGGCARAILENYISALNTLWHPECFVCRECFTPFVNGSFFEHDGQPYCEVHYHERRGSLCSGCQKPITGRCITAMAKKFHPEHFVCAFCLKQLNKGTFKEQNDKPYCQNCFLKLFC
UniProt P25322: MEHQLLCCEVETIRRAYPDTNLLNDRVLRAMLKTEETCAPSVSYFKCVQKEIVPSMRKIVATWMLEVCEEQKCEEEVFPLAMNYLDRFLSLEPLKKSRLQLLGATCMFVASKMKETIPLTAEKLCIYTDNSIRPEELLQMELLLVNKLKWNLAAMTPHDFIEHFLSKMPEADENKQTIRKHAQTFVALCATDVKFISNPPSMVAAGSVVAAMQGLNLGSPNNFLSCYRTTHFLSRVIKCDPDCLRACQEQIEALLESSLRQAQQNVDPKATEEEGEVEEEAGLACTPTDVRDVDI
UniProt P24385: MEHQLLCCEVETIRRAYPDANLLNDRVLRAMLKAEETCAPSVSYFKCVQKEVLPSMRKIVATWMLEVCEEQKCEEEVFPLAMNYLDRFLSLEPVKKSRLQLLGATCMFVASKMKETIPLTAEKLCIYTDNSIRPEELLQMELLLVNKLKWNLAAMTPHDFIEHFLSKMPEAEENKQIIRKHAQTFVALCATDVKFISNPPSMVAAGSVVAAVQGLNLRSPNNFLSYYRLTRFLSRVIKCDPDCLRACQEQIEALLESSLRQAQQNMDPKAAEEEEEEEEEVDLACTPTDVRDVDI

Substance: Cyclin D1 (Ccnd1), endogenous (from UniProt P25322 1-295)
binding [1]: binds

binding [2]: binds | binding [3]: binds
Substance: Flag tagged Ccnd1, in vitro translated (from UniProt P24385 1-295)

binding [4]: binds
Substance: Flag-tagged human Ccnd1 (in R3327-5′A cells) (from UniProt P24385 1-295)

binding [5]: binds
Substance: paxillin (Pxn), endogenous (from UniProt Q8VI36 1-591)
